Measurements taken from patent publication US20250282827A1, “LIPIDATED POLYMYXIN ANALOGUES” (priority 2021, published 2025).
For some of these results: At least one peptide structure holds a part that was inferred or is arguable (an end, a ring closure or a residue). For some of these results: For at least one compound, name, drawing or mass did not settle the structure. Some results were stated once for a whole list of compounds, not compound by compound. Positions of bridges follow the written chain, without caps; N, C: chain ends. Non-standard residues stand in square brackets, D forms with d. Residues, ends and D or L forms follow the SMILES beside them. *: point of attachment. CH2CH2OBz(4-tBu) = CC(C)(C)c1ccc(C(=O)OCC*)cc1; Ethyl(2-butanoyloxy) = CCCC(=O)OCC*; Ethyl(2-propionyloxy) = CCC(=O)OCC*; Dab = NCC[C@H](N)C(=O)O

Tests used:
[1] = tested on: E. coli ATCC MS8345; format: cell-based, Escherichia coli
Description: (§1) All 81 compounds prepared in Examples 2 and 3 underwent screening against a panel of Gram-negative bacterium to assess their ability to inhibit bacterial growth. […] The median value is presented.
Expansion of the polymyxin macrocycle by substituting […]) offered little advantage in antimicrobial activity but was generally well tolerated although for A. baumanni and P. aeruginosa this was detrimental.

[2] = tested on: kidney organoids derived from human induced pluripotent stem cells; assay: Nephrotoxicity on kidney organoids, renal tubule deterioration by bright field imaging; format: cell-based; details: scored after 48 h; concentrations up to 1 mM
Procedure: Selected polymyxin analogues were evaluated for cytotoxicity in physiologically relevant human kidney tissue, using kidney organoids derived from human induced pluripotent stem cells (Soo et al. 2018). Monolipidated analogues 29, 31, 33, containing a propyl, decyl or phenyl lipid, dilapidated compounds, 35, 38, 39, containing a propyl, tert-butyl or phenyl, lipid, respectively and the N-capped, di-lipidated (phenyl) 49 were selected.
The control compound polymyxin B and the seven ClipPA analogues were tested by adding a range of concentrations (based on Gallado-Godoy et al. 2016) to the organoids at day 12 of the protocol, shown previously to correspond to optimal maturity of the organoid tissues.
Toxicity was scored after 48 h for signs of renal tubule deterioration visible by bright field imaging (not shown).

[3] = tested on: K. pneumoniae ATCC 700603; format: cell-based, Klebsiella pneumoniae; details: median of triplicate
Description: as §1

For `CC(C)C[C@@H]1NC(=O)[C@@H](Cc2ccccc2)NC(=O)[C@H](CCN)NC(=O)[C@@H](NC(=O)[C@H](CCN)NC(=O)[C@@H](NC(=O)[C@H](CCN)NC(=O)[C@@H](N)CSCCOC(=O)c2ccc(C(C)(C)C)cc2)[C@@H](C)O)CCNC(=O)[C@H]([C@@H](C)O)NC(=O)[C@H](CCN)NC(=O)[C@H](CCN)NC1=O` [Compound 34] (H-C(CH2CH2OBz(4-tBu))[Dab]T[Dab][Dab][Dab][dF]L[Dab][Dab]T; lactam 5-C), the “potency against colistin-resistant E. coli ATCC MS8345 compared with polymyxin” value ([1]; in words) was “more potent”.

With `C[C@@H](O)[C@@H]1NC(=O)[C@H](CCN)NC(=O)[C@H](CCN)NC(=O)[C@H](CSCCOC(=O)c2ccc(C(C)(C)C)cc2)NC(=O)[C@@H](Cc2ccccc2)NC(=O)[C@H](CCN)NC(=O)[C@@H](NC(=O)[C@H](CCN)NC(=O)[C@@H](NC(=O)[C@H](CCN)NC(=O)[C@@H](N)CSCCOC(=O)c2ccc(C(C)(C)C)cc2)[C@@H](C)O)CCNC1=O` [Compound 40] (H-C(CH2CH2OBz(4-tBu))[Dab]T[Dab][Dab][Dab][dF]C(CH2CH2OBz(4-tBu))[Dab][Dab]T; lactam 5-C) the “renal tubule deterioration / tissue damage of kidney organoids by bright field imaging” value [2] was “dose-dependent degradation”.

With `CCCC(=O)OCCSC[C@H](N)C(=O)N[C@@H](CCN)C(=O)N[C@H](C(=O)N[C@@H](CCN)C(=O)N[C@H]1CCCCNC(=O)[C@H]([C@@H](C)O)NC(=O)[C@H](CCN)NC(=O)[C@H](CCN)NC(=O)[C@H](CC(C)C)NC(=O)[C@@H](Cc2ccccc2)NC(=O)[C@H](CCN)NC1=O)[C@@H](C)O` [Compound 24] (H-C(Ethyl(2-butanoyloxy))[Dab]T[Dab]K[Dab][dF]L[Dab][Dab]T; lactam 5-C) the “MIC K. pneumoniae ATCC 700603” value [3] was 32->32.

With `CCC(=O)OCCSC[C@@H](N)C(=O)N[C@@H](CCN)C(=O)N[C@H](C(=O)N[C@@H](CCN)C(=O)N[C@H]1CCNC(=O)[C@H]([C@@H](C)O)NC(=O)[C@H](CCN)NC(=O)[C@H](CCN)NC(=O)[C@H](CC(C)C)NC(=O)[C@@H](Cc2ccccc2)NC(=O)[C@H](CCN)NC1=O)[C@@H](C)O` [Compound 58] (H-[dC](Ethyl(2-propionyloxy))[Dab]T[Dab][Dab][Dab][dF]L[Dab][Dab]T; lactam 5-C) the “MIC E. coli ATCC MS8345” value ([1]; colistin-resistant strain, median of triplicate) was >32-32 μg/mL.
